Laboratory results: the supplement of paper PMC11732987, “Enantioselective OTUD7B fragment discovery through chemoproteomics screening and high-throughput optimisation” (Communications Chemistry, 2025)
Some of the results follow. The data scatter; read single values as rough.

Protein sequences, listed by entry. Tags and fused reporters are not part of them. Lines headed by an entry give the natural chain unless they say otherwise; changes in a name come on top. Residues count along the entry.
UniProt O95149: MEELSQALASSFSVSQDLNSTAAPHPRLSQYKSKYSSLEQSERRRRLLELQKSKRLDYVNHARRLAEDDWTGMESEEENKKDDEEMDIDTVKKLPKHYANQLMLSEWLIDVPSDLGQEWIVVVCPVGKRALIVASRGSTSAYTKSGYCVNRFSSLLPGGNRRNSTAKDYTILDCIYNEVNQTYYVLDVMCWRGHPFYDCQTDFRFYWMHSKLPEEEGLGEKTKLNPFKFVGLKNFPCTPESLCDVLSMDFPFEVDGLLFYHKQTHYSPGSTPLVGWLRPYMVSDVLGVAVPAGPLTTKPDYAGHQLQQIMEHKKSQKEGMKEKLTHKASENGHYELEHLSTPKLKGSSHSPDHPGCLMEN
UniProt Q8NDV3: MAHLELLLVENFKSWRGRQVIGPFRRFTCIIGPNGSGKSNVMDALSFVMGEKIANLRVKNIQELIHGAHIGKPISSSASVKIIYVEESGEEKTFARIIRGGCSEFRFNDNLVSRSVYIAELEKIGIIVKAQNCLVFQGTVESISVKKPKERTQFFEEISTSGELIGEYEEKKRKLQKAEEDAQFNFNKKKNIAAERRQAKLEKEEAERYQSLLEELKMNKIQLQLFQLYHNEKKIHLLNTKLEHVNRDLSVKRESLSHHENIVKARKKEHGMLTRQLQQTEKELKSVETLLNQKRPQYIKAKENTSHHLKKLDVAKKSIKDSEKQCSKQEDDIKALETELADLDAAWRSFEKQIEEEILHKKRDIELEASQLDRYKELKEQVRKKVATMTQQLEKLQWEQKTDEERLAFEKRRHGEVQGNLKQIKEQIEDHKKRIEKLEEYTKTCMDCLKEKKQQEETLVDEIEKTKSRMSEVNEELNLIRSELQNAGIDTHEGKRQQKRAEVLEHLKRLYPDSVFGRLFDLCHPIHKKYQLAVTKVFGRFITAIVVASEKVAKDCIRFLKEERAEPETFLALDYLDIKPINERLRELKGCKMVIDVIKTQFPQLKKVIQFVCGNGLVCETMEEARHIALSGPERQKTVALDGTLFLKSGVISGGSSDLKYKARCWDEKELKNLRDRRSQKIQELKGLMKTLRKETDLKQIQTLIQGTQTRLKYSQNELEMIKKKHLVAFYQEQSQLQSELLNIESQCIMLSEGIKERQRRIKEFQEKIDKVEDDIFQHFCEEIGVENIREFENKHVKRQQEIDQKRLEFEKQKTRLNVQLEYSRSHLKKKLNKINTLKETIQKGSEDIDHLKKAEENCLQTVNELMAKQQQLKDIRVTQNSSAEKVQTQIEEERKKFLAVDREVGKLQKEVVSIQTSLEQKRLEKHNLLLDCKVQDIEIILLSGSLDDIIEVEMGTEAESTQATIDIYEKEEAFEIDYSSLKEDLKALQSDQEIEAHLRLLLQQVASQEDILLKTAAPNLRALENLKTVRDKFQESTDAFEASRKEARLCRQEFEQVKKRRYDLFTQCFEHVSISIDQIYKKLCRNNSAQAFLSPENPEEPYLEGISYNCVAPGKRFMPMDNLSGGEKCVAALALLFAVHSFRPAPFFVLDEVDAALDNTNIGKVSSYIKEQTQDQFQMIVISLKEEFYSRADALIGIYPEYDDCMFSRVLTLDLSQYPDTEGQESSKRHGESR
UniProt Q8ND04: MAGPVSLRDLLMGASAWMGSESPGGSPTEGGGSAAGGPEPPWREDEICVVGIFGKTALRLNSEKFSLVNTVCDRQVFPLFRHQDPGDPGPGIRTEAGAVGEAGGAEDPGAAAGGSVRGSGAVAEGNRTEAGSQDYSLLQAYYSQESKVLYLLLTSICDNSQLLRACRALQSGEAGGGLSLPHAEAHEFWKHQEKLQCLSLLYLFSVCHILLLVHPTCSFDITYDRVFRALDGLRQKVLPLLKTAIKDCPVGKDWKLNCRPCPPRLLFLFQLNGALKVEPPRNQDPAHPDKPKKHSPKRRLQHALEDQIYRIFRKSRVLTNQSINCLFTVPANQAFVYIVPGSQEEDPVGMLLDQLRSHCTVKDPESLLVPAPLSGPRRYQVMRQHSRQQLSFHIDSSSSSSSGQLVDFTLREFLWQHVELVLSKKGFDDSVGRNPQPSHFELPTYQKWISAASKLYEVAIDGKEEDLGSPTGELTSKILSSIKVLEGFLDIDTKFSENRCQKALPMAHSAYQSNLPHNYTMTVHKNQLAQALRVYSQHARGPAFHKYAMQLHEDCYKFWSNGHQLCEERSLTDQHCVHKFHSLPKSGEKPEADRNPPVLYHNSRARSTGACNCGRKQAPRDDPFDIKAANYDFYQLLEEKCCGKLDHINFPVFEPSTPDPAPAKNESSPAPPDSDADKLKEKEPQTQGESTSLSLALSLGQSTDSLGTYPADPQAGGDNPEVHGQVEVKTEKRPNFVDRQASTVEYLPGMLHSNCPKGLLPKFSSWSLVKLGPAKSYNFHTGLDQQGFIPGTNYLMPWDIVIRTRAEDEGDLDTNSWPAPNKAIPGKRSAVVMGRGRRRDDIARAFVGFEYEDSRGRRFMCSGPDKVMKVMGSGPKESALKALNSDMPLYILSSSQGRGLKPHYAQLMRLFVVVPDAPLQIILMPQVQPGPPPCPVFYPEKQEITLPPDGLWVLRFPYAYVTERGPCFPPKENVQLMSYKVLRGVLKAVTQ
UniProt P28370, whole entry, looked up: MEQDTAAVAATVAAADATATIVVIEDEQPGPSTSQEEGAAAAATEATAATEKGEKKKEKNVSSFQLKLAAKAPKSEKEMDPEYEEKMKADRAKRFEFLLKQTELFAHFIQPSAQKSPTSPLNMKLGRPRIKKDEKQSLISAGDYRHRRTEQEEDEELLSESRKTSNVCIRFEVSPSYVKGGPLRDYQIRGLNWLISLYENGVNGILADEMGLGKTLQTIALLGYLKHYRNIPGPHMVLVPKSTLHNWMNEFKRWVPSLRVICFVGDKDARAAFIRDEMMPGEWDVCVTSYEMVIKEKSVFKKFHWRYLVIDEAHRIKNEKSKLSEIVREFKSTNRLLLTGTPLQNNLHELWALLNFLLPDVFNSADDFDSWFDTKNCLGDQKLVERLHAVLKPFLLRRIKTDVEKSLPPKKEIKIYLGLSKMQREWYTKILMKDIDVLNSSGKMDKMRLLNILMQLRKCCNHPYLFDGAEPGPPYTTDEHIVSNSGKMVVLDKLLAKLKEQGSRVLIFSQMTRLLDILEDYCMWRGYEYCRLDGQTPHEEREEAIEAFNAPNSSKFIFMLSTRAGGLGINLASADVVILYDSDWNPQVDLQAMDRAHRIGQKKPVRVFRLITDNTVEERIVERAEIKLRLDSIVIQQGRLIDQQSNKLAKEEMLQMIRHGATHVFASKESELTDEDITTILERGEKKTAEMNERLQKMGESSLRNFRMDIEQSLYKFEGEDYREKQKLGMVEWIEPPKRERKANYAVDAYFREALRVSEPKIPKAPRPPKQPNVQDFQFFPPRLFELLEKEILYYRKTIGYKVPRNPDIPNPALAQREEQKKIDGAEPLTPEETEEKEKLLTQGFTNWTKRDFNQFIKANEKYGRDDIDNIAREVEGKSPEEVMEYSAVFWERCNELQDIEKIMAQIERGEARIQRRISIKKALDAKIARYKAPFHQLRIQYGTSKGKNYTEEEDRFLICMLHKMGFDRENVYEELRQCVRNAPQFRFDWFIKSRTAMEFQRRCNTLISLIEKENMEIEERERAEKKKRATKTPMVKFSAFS
UniProt Q13425: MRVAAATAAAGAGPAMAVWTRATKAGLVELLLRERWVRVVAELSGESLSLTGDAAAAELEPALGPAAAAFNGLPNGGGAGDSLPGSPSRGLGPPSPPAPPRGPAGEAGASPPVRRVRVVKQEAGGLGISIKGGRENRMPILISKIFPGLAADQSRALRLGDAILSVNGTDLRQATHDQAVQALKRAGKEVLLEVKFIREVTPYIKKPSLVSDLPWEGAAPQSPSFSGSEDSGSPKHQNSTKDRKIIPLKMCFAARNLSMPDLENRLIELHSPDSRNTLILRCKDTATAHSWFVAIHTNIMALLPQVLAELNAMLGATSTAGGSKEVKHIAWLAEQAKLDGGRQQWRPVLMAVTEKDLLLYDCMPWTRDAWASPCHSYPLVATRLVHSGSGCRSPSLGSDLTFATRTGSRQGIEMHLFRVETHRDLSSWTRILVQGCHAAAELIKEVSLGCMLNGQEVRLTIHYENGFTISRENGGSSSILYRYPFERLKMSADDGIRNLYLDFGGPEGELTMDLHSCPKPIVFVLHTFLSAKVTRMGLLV
UniProt Q9H4F8: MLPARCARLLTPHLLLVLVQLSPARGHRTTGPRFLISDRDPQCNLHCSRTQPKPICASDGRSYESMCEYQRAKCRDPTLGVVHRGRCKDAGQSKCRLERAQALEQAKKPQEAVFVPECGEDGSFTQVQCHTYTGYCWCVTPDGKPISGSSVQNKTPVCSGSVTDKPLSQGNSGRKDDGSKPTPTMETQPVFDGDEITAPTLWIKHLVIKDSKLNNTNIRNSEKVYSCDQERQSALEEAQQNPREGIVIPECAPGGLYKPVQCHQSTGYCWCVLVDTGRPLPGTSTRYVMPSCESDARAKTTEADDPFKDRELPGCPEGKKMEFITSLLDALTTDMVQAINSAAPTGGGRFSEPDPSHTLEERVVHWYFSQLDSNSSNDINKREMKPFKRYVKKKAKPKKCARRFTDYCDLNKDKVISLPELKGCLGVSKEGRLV
UniProt O95219: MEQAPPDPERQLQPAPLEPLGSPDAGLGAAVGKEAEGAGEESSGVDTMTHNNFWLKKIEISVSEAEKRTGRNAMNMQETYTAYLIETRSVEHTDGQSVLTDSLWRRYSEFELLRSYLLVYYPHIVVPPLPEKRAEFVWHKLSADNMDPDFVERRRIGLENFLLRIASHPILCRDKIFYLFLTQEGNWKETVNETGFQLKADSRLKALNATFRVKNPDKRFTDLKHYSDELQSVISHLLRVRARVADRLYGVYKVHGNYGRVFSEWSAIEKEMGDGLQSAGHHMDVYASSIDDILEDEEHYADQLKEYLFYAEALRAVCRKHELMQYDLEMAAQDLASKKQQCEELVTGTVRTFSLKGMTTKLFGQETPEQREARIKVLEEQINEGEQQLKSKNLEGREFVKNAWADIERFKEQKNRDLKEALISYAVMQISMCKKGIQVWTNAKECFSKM
UniProt Q9Y289, 610-635: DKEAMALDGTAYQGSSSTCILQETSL
UniProt O15198: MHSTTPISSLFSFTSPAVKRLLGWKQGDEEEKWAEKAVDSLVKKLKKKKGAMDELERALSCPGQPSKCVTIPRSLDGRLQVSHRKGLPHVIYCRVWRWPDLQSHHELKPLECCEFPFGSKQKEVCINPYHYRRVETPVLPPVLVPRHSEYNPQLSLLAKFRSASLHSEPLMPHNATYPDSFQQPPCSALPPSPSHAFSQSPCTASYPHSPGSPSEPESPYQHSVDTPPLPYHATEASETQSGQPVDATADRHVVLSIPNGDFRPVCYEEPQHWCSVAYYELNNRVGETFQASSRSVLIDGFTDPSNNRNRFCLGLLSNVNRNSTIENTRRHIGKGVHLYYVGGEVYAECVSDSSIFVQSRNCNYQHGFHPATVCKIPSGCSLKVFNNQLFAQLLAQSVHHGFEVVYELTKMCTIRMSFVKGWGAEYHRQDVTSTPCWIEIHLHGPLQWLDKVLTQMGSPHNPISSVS
UniProt Q8WUM9: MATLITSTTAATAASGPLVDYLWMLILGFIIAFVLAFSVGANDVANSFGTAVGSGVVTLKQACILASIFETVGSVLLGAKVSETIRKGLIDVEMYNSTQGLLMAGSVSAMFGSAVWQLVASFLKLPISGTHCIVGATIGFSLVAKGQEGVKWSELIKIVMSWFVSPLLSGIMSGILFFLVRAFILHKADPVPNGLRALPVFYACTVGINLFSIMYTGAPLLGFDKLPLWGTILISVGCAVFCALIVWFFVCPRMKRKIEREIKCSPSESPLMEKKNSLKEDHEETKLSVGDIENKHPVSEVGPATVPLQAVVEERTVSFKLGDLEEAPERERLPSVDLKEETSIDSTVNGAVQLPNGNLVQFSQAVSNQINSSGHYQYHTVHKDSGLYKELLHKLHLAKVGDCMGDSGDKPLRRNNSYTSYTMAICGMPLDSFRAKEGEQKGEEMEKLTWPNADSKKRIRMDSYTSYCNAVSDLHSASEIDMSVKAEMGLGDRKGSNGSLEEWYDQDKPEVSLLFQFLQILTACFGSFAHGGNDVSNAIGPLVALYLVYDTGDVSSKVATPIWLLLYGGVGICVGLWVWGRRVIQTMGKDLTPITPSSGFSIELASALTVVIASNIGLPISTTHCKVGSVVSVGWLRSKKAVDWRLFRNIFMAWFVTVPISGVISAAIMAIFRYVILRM
UniProt Q8TEV9, 511-534: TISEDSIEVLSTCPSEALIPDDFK
UniProt O00161: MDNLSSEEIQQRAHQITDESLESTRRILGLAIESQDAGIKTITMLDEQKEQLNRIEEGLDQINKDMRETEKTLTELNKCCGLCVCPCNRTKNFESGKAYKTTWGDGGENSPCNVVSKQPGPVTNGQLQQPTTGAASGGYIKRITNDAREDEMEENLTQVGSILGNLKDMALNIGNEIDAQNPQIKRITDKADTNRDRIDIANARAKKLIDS

The targets below were run with ClCC(=O)N[C@@H]1CCCc2ccccc12 (assay: log2 mean competition ratio of IA-DTB cysteine labelling (DMSO/compound) (log2 ratio); higher = stronger cysteine engagement by compound). Conditions: 50 µM; treatment time: 4 h; cell line lysate: HEK293T.
Protocol: (§1)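 IA-DTB competitive cysteine chemoproteomics in HEK293T RIPA lysate. Lysates were treated with compound 29 or 30 at 50 or 200 µM for 4 h, then IA-DTB (500 µM, 1 h), trypsin-digested, NeutrAvidin-enriched and analysed by diaPASEF. Competition ratio = intensity DMSO / intensity compound (n=4 treated, n=64 DMSO); binding: mean log2 CR ≥ 1 and p ≤ 0.05 plus QC filters. Target is the cysteine site.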

Row | Target | log2 mean competition ratio
1 | SMG9 C380 (UniProt Q9H0W8) | -0.0998
2 | SNUPN C199 (UniProt O95149) | 0.223
3 | SNTA1 C400 (UniProt Q13424) | 0.0872
4 | SLC1A4 C500 (UniProt P43007) | -0.2
5 | SMC1B C29 (UniProt Q8NDV3) | 0.104
6 | SMG8 C555 (UniProt Q8ND04) | 0.0876
7 | SMG1 C1448 (UniProt Q96Q15) | 0.0131
8 | SLC25A1 C70 (UniProt P53007) | -0.0366
9 | SMARCA1 C377 (UniProt P28370) | 0.0391
10 | SNTB2 C450 (UniProt Q13425) | -0.235
11 | SMCHD1 C1445 (UniProt A6NHR9) | -0.4
12 | SMOC1 C315 (UniProt Q9H4F8) | 0.144
13 | SMARCC2 C495 (UniProt Q8TAQ2) | -0.125
14 | SLC6A15 C367 | 0.147
15 | SLK C1212 | -0.186
16 | SLU7 C455 (UniProt O95391) | -0.243
17 | SNIP1 C299 (UniProt Q8TAD8) | -0.0792
18 | SNX4 C342 (UniProt O95219) | -0.174
19 | SLC27A6 C147 (UniProt Q9Y2P4) | 0.124

Row | Target | log2 mean competition ratio
20 | SLC5A6 C628 (UniProt Q9Y289) | -0.149
21 | SOGA1 C499 (UniProt O94964) | -0.312
22 | SMURF1 C152 | -0.225
23 | SMARCA2 C1175 (UniProt P51531) | 0.00549
24 | SLC7A2 C376 (UniProt P52569) | -0.149
25 | SLC7A1 C628 (UniProt P30825) | -0.232
26 | SMAD9 C61 (UniProt O15198) | 0.0498
27 | SLC2A12 C601 | -0.0752
28 | SLC20A1 C264 (UniProt Q8WUM9) | 0.237
29 | SLC12A9 C911 (UniProt Q9BXP2) | 0.18
30 | SMPD4 C698 (UniProt Q9NXE4) | -0.458
31 | SNRPD2 C46 | -0.0212
32 | SMCR8 C523 (UniProt Q8TEV9) | -0.374
33 | SNAP23 C112 (UniProt O00161) | -0.193
34 | SMPD2 C304 (UniProt O60906) | 0.205
35 | SMARCA2 C968 (UniProt P51531) | 0.285
36 | SNRNP48 C292 (UniProt Q6IEG0) | -0.106
37 | SNX33 C232 (UniProt Q8WV41) | -0.199
38 | SLC49A4 C135 | -0.0197

Same assay, conditions: 200 µM; treatment time: 4 h; cell line lysate: HEK293T

Row | Target | log2 mean competition ratio
39 | SMG9 C380 (UniProt Q9H0W8) | 0.336
40 | SNUPN C199 (UniProt O95149) | -0.274
41 | SNTA1 C400 (UniProt Q13424) | 0.142
42 | SLC1A4 C500 (UniProt P43007) | -0.396
43 | SMC1B C29 (UniProt Q8NDV3) | -0.104
44 | SMG8 C555 (UniProt Q8ND04) | -0.0829
45 | SMG1 C1448 (UniProt Q96Q15) | 0.191
46 | SLC25A1 C70 (UniProt P53007) | 0.197
47 | SMARCA1 C377 (UniProt P28370) | 0.0668
48 | SNTB2 C450 (UniProt Q13425) | -0.246
49 | SMCHD1 C1445 (UniProt A6NHR9) | 0.291
50 | SMOC1 C315 (UniProt Q9H4F8) | -0.259
51 | SMARCC2 C495 (UniProt Q8TAQ2) | -0.216
52 | SLC6A15 C367 | 0.215
53 | SLK C1212 | -0.00775
54 | SLU7 C455 (UniProt O95391) | 0.0766
55 | SNIP1 C299 (UniProt Q8TAD8) | 0.0211
56 | SNX4 C342 (UniProt O95219) | -0.277
57 | SLC27A6 C147 (UniProt Q9Y2P4) | 0.0291

Row | Target | log2 mean competition ratio
58 | SLC5A6 C628 (UniProt Q9Y289) | 0.1
59 | SOGA1 C499 (UniProt O94964) | 0.153
60 | SMURF1 C152 | 0.19
61 | SMARCA2 C1175 (UniProt P51531) | 0.0881
62 | SLC7A2 C376 (UniProt P52569) | -0.294
63 | SLC7A1 C628 (UniProt P30825) | 0.403
64 | SMAD9 C61 (UniProt O15198) | 0.1
65 | SLC2A12 C601 | 0.229
66 | SLC20A1 C264 (UniProt Q8WUM9) | 0.176
67 | SLC12A9 C911 (UniProt Q9BXP2) | 8.21e-05
68 | SMPD4 C698 (UniProt Q9NXE4) | 0.166
69 | SNRPD2 C46 | -0.192
70 | SMCR8 C523 (UniProt Q8TEV9) | -0.225
71 | SNAP23 C112 (UniProt O00161) | 0.149
72 | SMPD2 C304 (UniProt O60906) | -0.0128
73 | SMARCA2 C968 (UniProt P51531) | 0.313
74 | SNRNP48 C292 (UniProt Q6IEG0) | 0.251
75 | SNX33 C232 (UniProt Q8WV41) | 0.274
76 | SLC49A4 C135 | -0.338

Each target was assayed with ClCC(=O)N[C@H]1CCCc2ccccc12 in the same assay as above. Conditions: 50 µM; treatment time: 4 h; cell line lysate: HEK293T.
Protocol: as §1

Row | Target | log2 mean competition ratio
77 | SMG9 C380 (UniProt Q9H0W8) | -0.0499
78 | SNUPN C199 (UniProt O95149) | -0.401
79 | SNTA1 C400 (UniProt Q13424) | 0.141
80 | SLC1A4 C500 (UniProt P43007) | -0.00884
81 | SMC1B C29 (UniProt Q8NDV3) | -0.0229
82 | SMG8 C555 (UniProt Q8ND04) | -0.188
83 | SMG1 C1448 (UniProt Q96Q15) | -0.396
84 | SLC25A1 C70 (UniProt P53007) | 0.191
85 | SMARCA1 C377 (UniProt P28370) | 0.0758
86 | SNTB2 C450 (UniProt Q13425) | -0.0293
87 | SMCHD1 C1445 (UniProt A6NHR9) | -0.431
88 | SMOC1 C315 (UniProt Q9H4F8) | -0.68
89 | SMARCC2 C495 (UniProt Q8TAQ2) | -0.383
90 | SLC6A15 C367 | -0.376
91 | SLK C1212 | 0.00211
92 | SLU7 C455 (UniProt O95391) | -0.454
93 | SNIP1 C299 (UniProt Q8TAD8) | 0.0333
94 | SNX4 C342 (UniProt O95219) | 0.0971
95 | SLC27A6 C147 (UniProt Q9Y2P4) | 0.16

Row | Target | log2 mean competition ratio
96 | SLC5A6 C628 (UniProt Q9Y289) | 0.407
97 | SOGA1 C499 (UniProt O94964) | -0.241
98 | SMURF1 C152 | 0.0206
99 | SMARCA2 C1175 (UniProt P51531) | -0.304
100 | SLC7A2 C376 (UniProt P52569) | 0.367
101 | SLC7A1 C628 (UniProt P30825) | -0.312
102 | SMAD9 C61 (UniProt O15198) | 0.19
103 | SLC2A12 C601 | -0.209
104 | SLC20A1 C264 (UniProt Q8WUM9) | -0.41
105 | SLC12A9 C911 (UniProt Q9BXP2) | 0.355
106 | SMPD4 C698 (UniProt Q9NXE4) | -0.335
107 | SNRPD2 C46 | 0.324
108 | SMCR8 C523 (UniProt Q8TEV9) | -0.557
109 | SNAP23 C112 (UniProt O00161) | 0.114
110 | SMPD2 C304 (UniProt O60906) | -0.265
111 | SMARCA2 C968 (UniProt P51531) | 0.227
112 | SNRNP48 C292 (UniProt Q6IEG0) | -0.0778
113 | SNX33 C232 (UniProt Q8WV41) | -0.273
114 | SLC49A4 C135 | -0.482
